Experimental data from patent US20120121507A1.

B1: P3375 synthetic peptide (… with C-terminal SGSGC extension) (peptide)
peptide: NTYWSQLLHFQTSGSGC
B2: P3378 synthetic peptide (… with C-terminal SGSGC extension) (peptide)
peptide: HPLSKHPYWSQPSGSGC

Legend:
[1] = biological target: epidermal growth factor receptor ectodomain; test: SPR, EGFR-ED flowed over immobilized P3375
[2] = biological target: epidermal growth factor receptor ectodomain; test: SPR, EGFR-ED flowed over immobilized P3375 (1200 RUs)
[3] = biological target: extracellular domain of the Type II TGF-beta receptor; test: SPR, receptor extracellular domain flowed over immobilized P3375 (1200 RUs)
[4] = biological target: epidermal growth factor receptor ectodomain; test: SPR, EGFR-ED flowed over immobilized P3378
[5] = biological target: epidermal growth factor receptor ectodomain; test: SPR, EGFR-ED flowed over immobilized P3378 (500 RUs)
[6] = biological target: extracellular domain of the Type II TGF-beta receptor; test: SPR, receptor extracellular domain flowed over immobilized P3378 (500 RUs)

| Binder | binding [1] | binding [2] | binding [3] | binding [4] | binding [5] | binding [6] |
| --- | --- | --- | --- | --- | --- | --- |
| B1 | no binding (tested: about 5.6 µM) | no binding (tested: 70 nM to 5.63 µM) | no binding (tested: 38 nM to 4.5 µM) |  |  |  |
| B2 |  |  |  | no binding (tested: about 5.6 µM) | no binding (tested: 70 nM to 5.63 µM) | no binding (tested: 38 nM to 4.5 µM) |

No constants are given. Whether binding was seen depends on the method and setting.
